## Library screening results

Chains of the proteins cited; added tags and fusions are not shown.
UniProt E9BF75, entry or part of it: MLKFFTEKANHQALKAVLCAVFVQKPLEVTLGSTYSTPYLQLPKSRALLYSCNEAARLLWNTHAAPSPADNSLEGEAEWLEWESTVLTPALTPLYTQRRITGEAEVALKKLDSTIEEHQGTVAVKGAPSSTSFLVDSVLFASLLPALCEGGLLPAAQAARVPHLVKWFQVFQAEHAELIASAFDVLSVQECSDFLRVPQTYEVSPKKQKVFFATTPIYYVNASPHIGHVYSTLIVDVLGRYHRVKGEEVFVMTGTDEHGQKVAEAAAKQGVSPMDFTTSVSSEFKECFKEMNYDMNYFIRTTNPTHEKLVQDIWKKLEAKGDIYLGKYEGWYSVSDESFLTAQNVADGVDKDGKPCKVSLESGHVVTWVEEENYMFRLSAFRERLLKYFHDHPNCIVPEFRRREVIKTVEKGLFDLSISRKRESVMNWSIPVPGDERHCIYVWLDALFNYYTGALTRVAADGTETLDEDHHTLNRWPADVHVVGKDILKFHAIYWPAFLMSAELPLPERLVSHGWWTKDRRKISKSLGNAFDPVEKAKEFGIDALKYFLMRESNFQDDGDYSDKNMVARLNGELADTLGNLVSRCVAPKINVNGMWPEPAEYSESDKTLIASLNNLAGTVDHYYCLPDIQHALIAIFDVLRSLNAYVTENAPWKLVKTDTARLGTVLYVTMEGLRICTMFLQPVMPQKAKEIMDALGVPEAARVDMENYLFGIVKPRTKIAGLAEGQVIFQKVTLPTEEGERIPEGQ

Measurements from “University of Dundee, Small-Polar-MMV Screening Library” (2021), ChEMBL document CHEMBL3988442.

A: 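Primary screen of methionyl-tRNA synthetase; the read-out is not stated. Target: Methionyl-tRNA synthetase (putative), Leishmania donovani (UniProt E9BF75). The test concentration is not given. Values are per cent inhibition. Of about 68,000 compounds tested this way, about 24 (0.035%) reached 50% or more in at least one test.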
B: 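Assay on Mycobacterium tuberculosis, filed only as a heat shock assay from Cornell; the read-out is not stated. The concentration is filed as 10 mM, unlikely as a test dose, so the dose is not known. Direction is inferred from retests: higher values go with stronger inhibition. About 69,000 compounds were tested under these conditions; 1.4% (about 930) showed 50% or more at least once.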

Results are percentages, as filed.
The record does not define 0% and 100%; most values in the screen are far below 50% and negative numbers occur (in some assays of this library far below -100).
The compounds are a random part of those screened.
A dash means the value is not listed here; it may have been measured.

| # | SMILES | A | B |
|---|---|---|---|
| 1 | `Cc1ccc(OC2(C(=O)O)CCN(C(=O)c3ccsc3)CC2)cn1` | 13.74 | 15.28 |
| 2 | `Cc1nn(C)c2c(N3CCN(C(=O)c4ccccc4)CC3)ncnc12` | 11.2 | -4.518 |
| 3 | `CSCCC(=O)N1C[C@H](Nc2ccnc(C)n2)[C@@H](C(C)C)C1` | 12.68 | -11.63 |
| 4 | `c1ccc(-c2nnc(N3CCCC4(CCOC4)C3)s2)cc1` (centres undefined) | 4.511 | 17.86 |
| 5 | `O=C1CC(N(C(=O)c2ccc(Cl)c(Cl)c2)C2CC2)C(=O)N1` (centres undefined) | 18.87 | -2.361 |
| 6 | `[H][C@]12CC[C@@]([H])(C1)N(Cc1ccccc1OCCCN1CCN(C)CC1)C2` | - | -173.7 |
| 7 | `CNc1cc(-c2cc(OC)c(OC)c(OC)c2)ncn1` | 6.068 | 0.7933 |
| 8 | `CCc1ccc(C(=O)Nc2ccc(CC3CC(=O)NC3=O)cc2)cc1` (centres undefined) | 10.34 | 4.321 |
| 9 | `[H][C@@]12C[C@H](C)O[C@]1([H])CCN(S(=O)(=O)c1ccc(F)cc1)C2` | - | -9.401 |
| 10 | `CC(NC(=O)NCc1cccc(CN2CCCC2)c1)c1nccs1` (centres undefined) | 10.65 | 3.124 |
| 11 | `CN(Cc1cnn(C)c1)C(=O)NC1CCS(=O)(=O)C1` (centres undefined) | 7.965 | 36.17 |
| 12 | `Cn1c2c(c(=O)c3ccccc31)CCC(C)(C)O2` | 16.32 | 14.41 |
| 13 | `Cc1ccc(CN2CCC[C@]3(C(=O)O)CN(CC4CC4)C[C@@H]3C2)s1` | 13.44 | - |
| 14 | `Cn1nc(C#N)c2c1CN(C(=O)c1c[nH]cn1)CCC2` | 6.723 | 5.142 |
| 15 | `Cc1cc(C(=O)N2CCC(C)CC2)ccc1NS(C)(=O)=O` | 5.351 | -28.22 |
| 16 | `CC(C)n1c2ccccc2c2c1cc(C(=O)N(C)C)n2C` | 6.718 | -17.86 |
| 17 | `CC(=O)Cc1c(C)nn(-c2cncc(N)c2)c1C` | 9.254 | 13.4 |
| 18 | `COCCC1(C(=O)O)CCCN(CCOCc2ccccc2)C1` (centres undefined) | 10.2 | -15.2 |
| 19 | `Cn1ccnc1CN1CCCN(Cc2noc(C3CC3)n2)CC1` | 17.75 | 17.92 |
| 20 | `CCc1nc2n(n1)CC(Nc1nc(C)cc(N(C)C)n1)CC2` (centres undefined) | 19.78 | -1.911 |
| 21 | `COc1ccccc1C(=O)Nc1c(F)c(C(=O)N2CCCC2)nn1C` | 8.065 | -3.019 |
| 22 | `Cc1ccc(CN2CCN(c3ncccc3C(N)=O)CC2CCO)cc1` (centres undefined) | 18.37 | -39.93 |
| 23 | `COCCN1CCN(c2nc(O)cc(Cc3ccccc3F)n2)CC1` | 10.76 | -27.69 |
| 24 | `CNc1nc(CNC(=O)Nc2ccccc2SC)cs1` | 13.27 | 15.01 |
| 25 | `CC1COCCN1Cc1noc(C(C)(C)C)n1` (centres undefined) | 2.102 | -9.834 |
| 26 | `CC(=O)N1CCc2nc(-c3ccccc3)nc(NC(C)C)c2CC1` | 18.6 | 15.1 |
| 27 | `O=C(NCCc1noc(-c2ccccn2)n1)NCC1CCCC1` | 14.1 | -5.293 |
| 28 | `O=C(c1cnccn1)N1CCCC(Cc2cccc3ncccc23)C1` (centres undefined) | 6.824 | -5.983 |
| 29 | `Cc1ccc2c(c1)[C@@H](CC(=O)N1CCN(C)CC1)CCO2` | 8.01 | -2.546 |
| 30 | `CN1CCC(N(C)C(=O)CCc2ccc(F)c(F)c2)C1=O` (centres undefined) | 14.25 | -0.5554 |
| 31 | `c1ccc2nc(N3CCCC3)c(NCc3nnc4n3CCC4)nc2c1` | - | -15.76 |
| 32 | `CN1CCC(N2CC[C@H](c3nc4ccc(C(F)(F)F)cc4[nH]3)C2)CC1` | 9.89 | -6.676 |
| 33 | `C[C@H](NS(C)(=O)=O)C(=O)NCc1cc(-c2ccco2)n[nH]1` | 8.01 | -17.75 |
| 34 | `[H][C@]12CC[C@]([H])(CN(Cc3cscn3)C1)N(C(=O)c1cc(C(C)C)on1)C2` | - | 37.62 |
| 35 | `CN(Cc1csc(-c2cccs2)n1)C(=O)CN1CCOC1=O` | 16.42 | -6.807 |
| 36 | `O=C(c1ccc(Cl)s1)N1CCCn2nc(CN3CC[C@H](F)C3)cc2C1` | 15.33 | 11.19 |
| 37 | `Cc1cccc(NC(=O)CNC(=O)Cn2ncc(Cl)c(Cl)c2=O)c1C` | 0 | 22.73 |
| 38 | `O=C1CCCN1Cc1nnc2n1CCCN(C(=O)c1ccc[nH]1)C2` | 15.5 | 27.49 |
| 39 | `Cc1cccc2c(CCNC(=O)NCCC[S+](C)[O-])c[nH]c12` (centres undefined) | 6.62 | -1.409 |
| 40 | `COc1ccc(F)c(CN2CCC(c3cc(O)nc(C)n3)C2)c1.O=C(O)CC(O)(CC(=O)O)C(=O)O` (centres undefined) | - | -13.93 |
| 41 | `COc1ccc(Cc2nc3c([nH]2)CC(C)(C)CNC3=O)cc1OC` | 6.162 | -21.61 |
| 42 | `COCCN(Cc1ccco1)Cc1nc(-c2ccsc2)no1` | 0.5236 | -10.72 |
| 43 | `Cc1cccc(N2CC3(CCN(S(=O)(=O)c4cccs4)C3)CC2=O)c1` (centres undefined) | 16.25 | -15.46 |
| 44 | `CCN1CCOCC12CCN(C(=O)C1CCCC1)CC2` | 12.5 | - |
| 45 | `Clc1cc(N2CCN(C3CCOCC3)CC2)nc2[nH]ccc12` | 24.61 | -5.19 |
| 46 | `FCCOc1cccc(NCc2c[nH]nc2-c2cccnc2)c1` | 25.82 | -4.582 |
| 47 | `CC(C)c1nccn1C(C)C(=O)N1CCN(S(C)(=O)=O)CC1` (centres undefined) | 9.712 | -3.876 |
| 48 | `Cc1ccc(CNC(=O)c2oc3ccccc3c2CN(C)C)n1C` | 21.66 | -5.242 |
| 49 | `COc1ccc2nnc(CCCC(=O)NCc3cccn3C)n2n1` | 15.35 | 0.593 |
| 50 | `Cc1ncsc1CCn1ccnc1-c1cc2n(n1)CCCNC2` | 0.6849 | -22.36 |
| 51 | `O=C(NS(=O)(=O)c1cccc(F)c1)c1ccccc1F` | 6.849 | -2.337 |
| 52 | `COC(=O)[C@@H](NC(=O)c1coc(COc2cccc(F)c2)n1)C(C)C` | 9.278 | -19.34 |
| 53 | `Cc1cc(CN2CCN(C(=O)NCCc3csc(C)n3)CC2)on1` | 8 | -6.417 |
| 54 | `CCOC(=O)CCCNC(=O)CN1CCN(c2ncccn2)CC1` | 5.512 | -17.17 |
| 55 | `O=C(O)c1nnn(-c2ccc(OC(F)(F)F)cc2)c1-c1ccncc1` | 13.38 | -6.748 |
| 56 | `O=C1CCCN1C(CNS(=O)(=O)C1CC1)Cc1cccc(F)c1` (centres undefined) | 16.95 | -9.32 |
| 57 | `COCC(=O)N1CCC(C)(c2cc(O)[nH]n2)CC1` | 13.65 | 53.15 |

5 of the entries, repeated:

| SMILES | A | B |
|---|---|---|
| `Cc1cc(CN2CCN(C(=O)NCCc3csc(C)n3)CC2)on1` | 8 | -6.417 |
| `COc1ccc(Cc2nc3c([nH]2)CC(C)(C)CNC3=O)cc1OC` | 6.162 | -21.61 |
| `CNc1nc(CNC(=O)Nc2ccccc2SC)cs1` | 13.27 | 15.01 |
| `CN1CCC(N2CC[C@H](c3nc4ccc(C(F)(F)F)cc4[nH]3)C2)CC1` | 9.89 | -6.676 |
| `Cc1ccc(CN2CCN(c3ncccc3C(N)=O)CC2CCO)cc1` (centres undefined) | 18.37 | -39.93 |